{"source": "PubChem BioAssay AID686943 (Drosophila RNAi Screening Center, 2013)", "aim": "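Fly genes whose loss alters ERK activation after insulin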 (primary screen)", "cell system": "Drosophila S2R+ haemocyte-like cells expressing YFP-tagged ERK (Rolled)", "reagents": "long dsRNA against Drosophila genes", "challenge": "insulin stimulation versus unstimulated cells; dose and duration not given", "detection": "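Per-plate z-scores of phospho-ERK immunostaining normalised to YFP-tagged ERK, measured with and without insulin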", "scale": "replicate 1, z-score of dpERK with insulin: higher = more active ERK per ERK-YFP after insulin", "note": "In all, the deposit lists about 23,000 reagents; shown is a random part of those with a known target gene and a result. 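Extra replicates exist only for a retested subset of genes; insulin dose and duration not given; both raised and lowered dpERK matter.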 The numbers tell different reagents against one gene apart. Further read-outs or replicates are left out here. Not stated in the record: the amount of reagent, the time to read-out."}
{"predicted target": "CG33792", "reagent no.": 1, "replicate 1, z-score of dpERK with insulin": 0.58}
{"predicted target": "dob (doppelganger von brummer)", "reagent no.": 1, "replicate 1, z-score of dpERK with insulin": 0.1}
{"predicted target": "CG2224", "reagent no.": 1, "replicate 1, z-score of dpERK with insulin": -0.77}
{"predicted target": "CG18213", "reagent no.": 1, "replicate 1, z-score of dpERK with insulin": 0.71}
{"predicted target": "sle (slender lobes)", "reagent no.": 1, "replicate 1, z-score of dpERK with insulin": -0.06}
{"predicted target": "Klp3A (Kinesin-like protein at 3A)", "reagent no.": 1, "replicate 1, z-score of dpERK with insulin": 0.62}
{"predicted target": "Klp3A (Kinesin-like protein at 3A)", "reagent no.": 2, "replicate 1, z-score of dpERK with insulin": 0.17}
{"predicted target": "CheB93b (Chemosensory protein B 93b)", "reagent no.": 1, "replicate 1, z-score of dpERK with insulin": -0.27}
{"predicted target": "Cpr78Cb (Cuticular protein 78Cb)", "reagent no.": 1, "replicate 1, z-score of dpERK with insulin": 0.5}
{"predicted target": "BomBc3 (Bomanin Bicipital 3)", "reagent no.": 1, "replicate 1, z-score of dpERK with insulin": 0.46}
{"predicted target": "Syt4 (Synaptotagmin 4)", "reagent no.": 1, "replicate 1, z-score of dpERK with insulin": 0.31}
{"predicted target": "Vhl (von Hippel-Lindau)", "reagent no.": 1, "replicate 1, z-score of dpERK with insulin": -1.6}

Records above whose gene name begins with S or s:
{"predicted target": "sle (slender lobes)", "reagent no.": 1, "replicate 1, z-score of dpERK with insulin": -0.06}
{"predicted target": "Syt4 (Synaptotagmin 4)", "reagent no.": 1, "replicate 1, z-score of dpERK with insulin": 0.31}

The listing continues:
{"predicted target": "ng2 (new glue 2)", "reagent no.": 1, "replicate 1, z-score of dpERK with insulin": 0.02}
{"predicted target": "CG7294", "reagent no.": 1, "replicate 1, z-score of dpERK with insulin": 0.62}
{"predicted target": "RpL24 (Ribosomal protein L24)", "reagent no.": 1, "replicate 1, z-score of dpERK with insulin": -2.68}
{"predicted target": "Atac1 (Ada2a-containing complex component 1)", "reagent no.": 1, "replicate 1, z-score of dpERK with insulin": 0.16}
{"predicted target": "Lcp65APsi (pseudo)", "reagent no.": 1, "replicate 1, z-score of dpERK with insulin": 0.15}
{"predicted target": "Lcp65APsi (pseudo)", "reagent no.": 2, "replicate 1, z-score of dpERK with insulin": -0.21}
{"predicted target": "ImpE2 (Ecdysone-inducible gene E2)", "reagent no.": 1, "replicate 1, z-score of dpERK with insulin": -0.32}
{"predicted target": "bbc (bb in a boxcar)", "reagent no.": 1, "replicate 1, z-score of dpERK with insulin": 0.46}
{"predicted target": "bbc (bb in a boxcar)", "reagent no.": 2, "replicate 1, z-score of dpERK with insulin": -0.26}
{"predicted target": "Pglym78 (Phosphoglyceromutase 78)", "reagent no.": 1, "replicate 1, z-score of dpERK with insulin": 1.13}
{"predicted target": "CG31819", "reagent no.": 1, "replicate 1, z-score of dpERK with insulin": 0.39}
{"predicted target": "TyrR (Tyramine receptor)", "reagent no.": 1, "replicate 1, z-score of dpERK with insulin": 0.78}
{"predicted target": "TyrR (Tyramine receptor)", "reagent no.": 2, "replicate 1, z-score of dpERK with insulin": 3.98}
{"predicted target": "CG5969", "reagent no.": 1, "replicate 1, z-score of dpERK with insulin": 0.05}
{"predicted target": "TwdlN (TweedleN)", "reagent no.": 1, "replicate 1, z-score of dpERK with insulin": -1.12}
{"predicted target": "CG4669", "reagent no.": 1, "replicate 1, z-score of dpERK with insulin": -0.64}
{"predicted target": "Actn3 (alpha actinin 3)", "reagent no.": 1, "replicate 1, z-score of dpERK with insulin": 0.27}
{"predicted target": "FeCH (Ferrochelatase)", "reagent no.": 1, "replicate 1, z-score of dpERK with insulin": 0.01}
{"predicted target": "Mrm2 (Mitochondrial rRNA methyltransferase 2)", "reagent no.": 1, "replicate 1, z-score of dpERK with insulin": -0.03}
